Assay [1] has as its target endogenous human Dnmt1 (human (endogenous in SW620)), P26358. Nature of the assay: co-IP; endogenous proteins of SW620 cells; hDnmt1 immunoprecipitates blotted with a human Lsh antibody. Conditions: remark: other sources report otherwise.
The target of assay [2] is GFP-xDnmt1 (Xenopus laevis) (UniProt Q6GQH0). Description: co-IP; GFP-xDnmt1 and T7-xLsh coexpressed in 293T cells, nuclear extracts, immunoprecipitated under high salt conditions (250 mM NaCl), reciprocal.

Sequences of proteins named here, by UniProt entry; tags and fusion partners are left off. A change or cut given only in a name is not applied to a line headed by its entry. A line that says so, or that is headed by a name, gives the form on record, which may keep a tag or linker.
GFP-xDnmt1 (Q6GQH0, form named): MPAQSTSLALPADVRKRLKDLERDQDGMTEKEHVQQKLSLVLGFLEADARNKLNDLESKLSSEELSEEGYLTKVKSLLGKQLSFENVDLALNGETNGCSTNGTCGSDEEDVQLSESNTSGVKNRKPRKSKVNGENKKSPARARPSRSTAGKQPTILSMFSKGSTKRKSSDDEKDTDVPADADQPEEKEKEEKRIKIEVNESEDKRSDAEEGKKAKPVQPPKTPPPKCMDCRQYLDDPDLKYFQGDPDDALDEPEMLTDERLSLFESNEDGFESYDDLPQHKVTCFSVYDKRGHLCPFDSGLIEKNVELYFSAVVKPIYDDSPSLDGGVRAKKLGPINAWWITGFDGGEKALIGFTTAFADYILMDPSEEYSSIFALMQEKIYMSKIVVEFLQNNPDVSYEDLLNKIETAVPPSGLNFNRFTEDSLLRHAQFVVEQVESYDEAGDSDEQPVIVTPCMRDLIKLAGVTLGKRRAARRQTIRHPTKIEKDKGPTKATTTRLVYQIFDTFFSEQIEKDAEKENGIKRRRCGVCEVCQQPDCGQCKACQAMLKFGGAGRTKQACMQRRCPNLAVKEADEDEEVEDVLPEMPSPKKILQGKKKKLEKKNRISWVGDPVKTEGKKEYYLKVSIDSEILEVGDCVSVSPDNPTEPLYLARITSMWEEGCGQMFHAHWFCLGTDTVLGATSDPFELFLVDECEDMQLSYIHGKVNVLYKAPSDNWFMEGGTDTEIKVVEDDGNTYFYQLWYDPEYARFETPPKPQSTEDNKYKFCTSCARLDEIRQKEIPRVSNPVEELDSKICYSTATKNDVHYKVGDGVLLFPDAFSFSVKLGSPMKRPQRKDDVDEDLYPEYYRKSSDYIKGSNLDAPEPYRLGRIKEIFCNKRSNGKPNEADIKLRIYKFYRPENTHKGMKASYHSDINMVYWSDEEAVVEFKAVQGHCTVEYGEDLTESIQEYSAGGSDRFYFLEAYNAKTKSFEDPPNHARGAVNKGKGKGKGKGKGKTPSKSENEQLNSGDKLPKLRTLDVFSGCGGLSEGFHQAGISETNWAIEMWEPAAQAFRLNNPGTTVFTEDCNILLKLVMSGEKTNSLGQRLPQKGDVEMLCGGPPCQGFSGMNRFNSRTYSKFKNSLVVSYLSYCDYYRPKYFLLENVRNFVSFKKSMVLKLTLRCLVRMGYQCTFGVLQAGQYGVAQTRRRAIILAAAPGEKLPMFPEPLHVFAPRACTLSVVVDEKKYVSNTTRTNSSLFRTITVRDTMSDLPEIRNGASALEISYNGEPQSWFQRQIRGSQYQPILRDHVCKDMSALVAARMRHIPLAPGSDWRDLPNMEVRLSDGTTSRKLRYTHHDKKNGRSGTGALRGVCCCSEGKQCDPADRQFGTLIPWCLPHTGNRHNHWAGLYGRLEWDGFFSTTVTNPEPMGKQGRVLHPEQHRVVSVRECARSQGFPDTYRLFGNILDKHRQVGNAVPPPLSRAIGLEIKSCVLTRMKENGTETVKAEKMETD

These are yes or no findings as the source states them, for the method shown. In cells and extracts the contact can be indirect. Some binding calls cover weakened binding; strength is not graded here.

B1: endogenous human Lsh, Q9NRZ9 1-838 (protein)
chain: MPAERPAGSGGSEAPAMVEQLDTAVITPAMLEEEEQLEAAGLERERKMLEKARMSWDRESTEIRYRRLQHLLEKSNIYSKFLLTKMEQQQLEEQKKKEKLERKKESLKVKKGKNSIDASEEKPVMRKKRGREDESYNISEVMSKEEILSVAKKNKKENEDENSSSTNLCVEDLQKNKDSNSIIKDRLSETVRQNTKFFFDPVRKCNGQPVPFQQPKHFTGGVMRWYQVEGMEWLRMLWENGINGILADEMGLGKTVQCIATIALMIQRGVPGPFLVCGPLSTLPNWMAEFKRFTPDIPTMLYHGTQEERQKLVRNIYKRKGTLQIHPVVITSFEIAMRDRNALQHCYWKYLIVDEGHRIKNMKCRLIRELKRFNADNKLLLTGTPLQNNLSELWSLLNFLLPDVFDDLKSFESWFDITSLSETAEDIIAKEREQNVLHMLHQILTPFLLRRLKSDVALEVPPKREVVVYAPLSKKQEIFYTAIVNRTIANMFGSSEKETIELSPTGRPKRRTRKSINYSKIDDFPNELEKLISQIQPEVDRERAVVEVNIPVESEVNLKLQNIMMLLRKCCNHPYLIEYPIDPVTQEFKIDEELVTNSGKFLILDRMLPELKKRGHKVLLFSQMTSMLDILMDYCHLRDFNFSRLDGSMSYSEREKNMHSFNTDPEVFIFLVSTRAGGLGINLTAADTVIIYDSDWNPQSDLQAQDRCHRIGQTKPVVVYRLVTANTIDQKIVERAAAKRKLEKLIIHKNHFKGGQSGLNLSKNFLDPKELMELLKSRDYEREIKGSREKVISDKDLELLLDRSDLIDQMNASGPIKEKMGIFKILENSEDSSPECLF
Consider B1, for which the binding entry in assay [1] was “binds”.

B2: T7-xLsh (protein, UniProt Q4V835 1-838)
chain: MPVGQSSAEQVSPAPKMEPSDDDPIITESMIKEEEKLEKAAEVEERKMIEKARMSWERDSNEMRYKRLQHLLEKSNIYSKFLLTKMEQQQLEEMRRKEKLEKKQKRVQPVKMQNQSSANEDQTGGRKKRQREENYNISDVMSKEEILSVSKKSKLEHEDENYSNKLTSEEIEKNGDSNSTIKDRLSQTVRNNAKQLLDPERKVNGQPVPFQQPKYFTGGVMRWYQIEGMEWLRMLWENGINGILADEMGLGKTVQCIATISMMVERGVPGPFFVCGPLSTLPNWVSEFKRFSPEIPVLLYHGNAQDRRRLARKINKREGSLQLFPVVITSFEIAMRDRPVLQHNAWKYMILDEGHRIKNMNCRLIQELKLFRSDNKLLLTGTPLQNNLSELWSLLNFLLPDVFDDLRSFESWFDISGISQNAADIVANEREQNILHMLHQILTPFLLRRLKCDVTLEVPPKREVIVYAPLTKKQETFYTAIVNKTIEKMLGQEKDCEEILSSPAVGRAKRRSRRAVNYSELDKDTPNDLEKLINQLIKQQEVEKERPSTKVHLPSDSQVNLKMRNIMMLLRKCCNHPYLIEYPLDPLTQNFKIDEELVNSSGKFLLLDRLLPEMKKRGHKVLIFSQMTMMLDILMDYCYYKKFNFCRLDGSMSYTDREENMRSFNTDPDVFIFLVSTRAGGLGINLTAADTVIIYDSDWNPQADLQAQDRCHRIGQTRPVVVYRLVTANTIDQKIVERAAAKRKLEKLVIHKNKFKGGQTGINQSKSCLDPQELLELLQSRDYEREVKGSSEKVISDKDLEMLLDRSDLVAQMKNNVLLQNAKQGVFKVVDSTEVTVS
Consider B2, for which the binding entry in assay [2] is recorded as “binds”.

Values taken from PMC4600896.
